No constants are given. Whether binding was seen depends on the method and setting. Binding seen in cells or lysates may run through a third protein. A yes stands for co-enrichment or nearness to the bait. Other partners may have been found.

Protein sequences, listed by entry. Tags and fused reporters are not part of them.
UniProt Q155P7: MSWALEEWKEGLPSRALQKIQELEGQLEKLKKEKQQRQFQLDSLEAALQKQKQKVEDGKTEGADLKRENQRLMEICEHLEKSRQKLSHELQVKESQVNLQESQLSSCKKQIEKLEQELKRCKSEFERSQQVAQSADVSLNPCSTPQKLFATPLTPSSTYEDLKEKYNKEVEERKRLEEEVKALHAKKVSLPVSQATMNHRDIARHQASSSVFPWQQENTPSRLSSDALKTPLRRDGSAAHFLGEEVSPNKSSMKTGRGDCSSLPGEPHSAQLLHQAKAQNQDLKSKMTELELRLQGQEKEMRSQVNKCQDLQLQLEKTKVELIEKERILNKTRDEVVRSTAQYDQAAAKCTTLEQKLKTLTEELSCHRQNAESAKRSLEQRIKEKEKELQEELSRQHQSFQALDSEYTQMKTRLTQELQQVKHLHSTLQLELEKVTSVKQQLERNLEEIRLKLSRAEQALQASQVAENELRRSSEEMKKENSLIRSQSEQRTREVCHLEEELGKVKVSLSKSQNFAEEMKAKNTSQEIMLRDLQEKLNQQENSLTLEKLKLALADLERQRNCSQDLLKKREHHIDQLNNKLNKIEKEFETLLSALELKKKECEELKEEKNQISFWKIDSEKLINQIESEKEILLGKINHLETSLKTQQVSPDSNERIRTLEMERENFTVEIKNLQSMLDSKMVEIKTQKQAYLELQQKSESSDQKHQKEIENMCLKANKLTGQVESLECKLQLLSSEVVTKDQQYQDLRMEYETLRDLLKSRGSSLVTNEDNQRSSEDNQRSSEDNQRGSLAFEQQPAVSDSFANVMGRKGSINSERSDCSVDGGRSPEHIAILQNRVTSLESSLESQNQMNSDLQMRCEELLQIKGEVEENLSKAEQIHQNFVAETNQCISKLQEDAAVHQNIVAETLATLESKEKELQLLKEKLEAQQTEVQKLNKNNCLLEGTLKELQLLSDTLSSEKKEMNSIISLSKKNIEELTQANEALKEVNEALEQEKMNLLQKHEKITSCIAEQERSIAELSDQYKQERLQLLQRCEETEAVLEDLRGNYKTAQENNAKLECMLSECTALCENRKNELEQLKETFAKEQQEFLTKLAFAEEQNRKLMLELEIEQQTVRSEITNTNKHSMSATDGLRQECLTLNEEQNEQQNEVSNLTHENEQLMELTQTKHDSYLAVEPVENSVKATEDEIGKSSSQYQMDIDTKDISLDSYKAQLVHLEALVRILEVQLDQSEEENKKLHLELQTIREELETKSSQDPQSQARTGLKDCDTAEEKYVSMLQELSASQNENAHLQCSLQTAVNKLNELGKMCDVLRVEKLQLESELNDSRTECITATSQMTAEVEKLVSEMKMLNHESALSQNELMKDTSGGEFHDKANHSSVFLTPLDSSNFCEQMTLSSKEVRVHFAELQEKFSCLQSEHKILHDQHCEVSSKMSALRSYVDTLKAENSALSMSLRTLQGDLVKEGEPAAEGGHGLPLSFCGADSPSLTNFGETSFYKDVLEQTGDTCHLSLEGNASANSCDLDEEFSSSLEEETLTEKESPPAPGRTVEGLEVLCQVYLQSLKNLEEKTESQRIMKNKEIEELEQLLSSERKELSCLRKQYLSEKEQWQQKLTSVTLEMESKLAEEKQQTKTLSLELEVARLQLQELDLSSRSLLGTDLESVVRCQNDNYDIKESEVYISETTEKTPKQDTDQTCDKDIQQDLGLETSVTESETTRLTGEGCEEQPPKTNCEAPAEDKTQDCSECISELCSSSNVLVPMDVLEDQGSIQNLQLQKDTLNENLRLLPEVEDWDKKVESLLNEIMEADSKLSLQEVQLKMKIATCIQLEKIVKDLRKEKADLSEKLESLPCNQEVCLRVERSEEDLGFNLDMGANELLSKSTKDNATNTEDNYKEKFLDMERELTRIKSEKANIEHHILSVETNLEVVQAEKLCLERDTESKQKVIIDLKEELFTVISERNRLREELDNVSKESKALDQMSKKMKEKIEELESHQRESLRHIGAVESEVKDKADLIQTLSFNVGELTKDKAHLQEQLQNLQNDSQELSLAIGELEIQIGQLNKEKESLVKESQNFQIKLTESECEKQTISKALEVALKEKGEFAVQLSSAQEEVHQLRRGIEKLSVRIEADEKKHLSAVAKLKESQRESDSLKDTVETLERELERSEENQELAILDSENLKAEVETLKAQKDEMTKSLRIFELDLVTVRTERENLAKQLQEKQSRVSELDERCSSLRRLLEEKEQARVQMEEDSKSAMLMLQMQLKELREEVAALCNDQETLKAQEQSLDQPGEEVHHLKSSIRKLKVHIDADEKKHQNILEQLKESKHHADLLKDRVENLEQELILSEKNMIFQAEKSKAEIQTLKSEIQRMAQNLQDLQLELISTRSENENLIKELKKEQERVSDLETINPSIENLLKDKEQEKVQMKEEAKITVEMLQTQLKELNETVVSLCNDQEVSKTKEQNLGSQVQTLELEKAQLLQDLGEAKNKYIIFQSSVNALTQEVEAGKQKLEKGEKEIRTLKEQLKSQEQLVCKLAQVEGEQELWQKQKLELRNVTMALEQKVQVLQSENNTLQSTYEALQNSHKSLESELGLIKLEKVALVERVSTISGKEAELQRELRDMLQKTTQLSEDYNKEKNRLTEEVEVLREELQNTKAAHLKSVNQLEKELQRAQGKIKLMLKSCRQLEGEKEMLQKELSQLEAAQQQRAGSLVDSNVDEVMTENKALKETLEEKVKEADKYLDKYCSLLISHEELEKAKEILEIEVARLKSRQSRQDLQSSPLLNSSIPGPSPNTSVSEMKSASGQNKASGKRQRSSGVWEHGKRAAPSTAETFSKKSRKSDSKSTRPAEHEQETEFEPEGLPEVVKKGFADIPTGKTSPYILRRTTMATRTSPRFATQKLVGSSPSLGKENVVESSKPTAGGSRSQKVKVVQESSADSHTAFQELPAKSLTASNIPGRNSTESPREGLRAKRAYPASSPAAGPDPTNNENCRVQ
UniProt Q8K1M6: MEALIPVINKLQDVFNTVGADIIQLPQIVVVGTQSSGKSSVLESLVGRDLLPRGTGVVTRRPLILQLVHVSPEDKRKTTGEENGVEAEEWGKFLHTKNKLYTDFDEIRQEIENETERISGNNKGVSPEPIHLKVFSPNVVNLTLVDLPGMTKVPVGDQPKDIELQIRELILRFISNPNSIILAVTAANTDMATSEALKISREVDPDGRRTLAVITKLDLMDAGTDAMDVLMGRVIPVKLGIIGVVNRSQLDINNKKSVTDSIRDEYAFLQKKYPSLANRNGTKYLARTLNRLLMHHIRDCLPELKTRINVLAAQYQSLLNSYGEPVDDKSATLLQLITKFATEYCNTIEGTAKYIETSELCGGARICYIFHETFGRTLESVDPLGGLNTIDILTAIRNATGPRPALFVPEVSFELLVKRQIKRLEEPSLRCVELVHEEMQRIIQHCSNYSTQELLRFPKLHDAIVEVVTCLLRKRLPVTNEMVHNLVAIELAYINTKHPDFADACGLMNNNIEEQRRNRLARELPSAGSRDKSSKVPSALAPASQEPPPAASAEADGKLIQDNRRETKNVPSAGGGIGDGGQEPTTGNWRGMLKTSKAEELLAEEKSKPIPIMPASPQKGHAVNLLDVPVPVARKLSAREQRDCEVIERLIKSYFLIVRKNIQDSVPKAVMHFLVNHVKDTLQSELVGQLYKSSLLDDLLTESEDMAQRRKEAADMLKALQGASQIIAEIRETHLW

This test has as its target Centromere protein F (CENP-F) (mouse (endogenous in oocytes)) (UniProt Q155P7). Put plainly: affinity purification with mass spectrometry; CENP-F immunoprecipitation from 1000 GV, MI and MII stage mouse oocytes; eluates on SDS-PAGE, silver staining, bands common to each stage analysed with MALDI/MS.

“Dynamin-related protein 1 (DRP1) (from UniProt Q8K1M6 1-736)”: the binding result is “binds”.

These data come from paper PMC9747930.
